PubChem BioAssay AID504793 | Drosophila RNAi Screening Center, 2011

- Assay: 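Genes required for cells to halt at G2/M after double-strand DNA breaks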 (primary screen)
- Cell system: Drosophila S2R+ cells
- Knock-down reagent: long dsRNA against Drosophila genes, about 0.25 µg dsRNA per well
- Time to read-out: 4 days of dsRNA, then 4 hours of drug before read-out
- Treatment: doxorubicin 0.5 µM for 4 hours to cause double-strand breaks, in cells also given a low, harmless dose of dsRNA against nbs to sensitise the assay
- Measured: 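Per-well count of mitotic cells stained for phospho-histone H3 after doxorubicin exposure, used as mitotic index; counts are raw and not normalised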
- Reading the numbers: mitotic cells: higher = more cells in mitosis, weaker G2 arrest
- Rule for the call: 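a call needs confirmation in secondary tests, with other dsRNAs and a check of mitotic timing without damage, not just a high primary count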
- Meaning of the calls: active = confirmed in follow-up tests; inactive = not confirmed
In all, the deposit lists about 23,000 reagents; below is an unselected part of those with a known target gene and a result. Of all reagents, 62 (0.27%) are marked active. 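Calls come from follow-up tests whose scores are not deposited, so confirmed genes may have low counts here; counts are not normalised per plate.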 Raw values are not corrected between plates. Reagents against one gene are numbered here. Names joined by + are all predicted targets of the reagent.

{"gene": "CG7772", "reagent": 1, "mitotic cells, replicate 1": 3, "call": "inactive"}
{"gene": "CG5347", "reagent": 1, "mitotic cells, replicate 1": 12, "call": "inactive"}
{"gene": "CG4617", "reagent": 1, "mitotic cells, replicate 1": 7, "call": "inactive"}
{"gene": "CG4617", "reagent": 2, "mitotic cells, replicate 1": 10, "call": "inactive"}
{"gene": "CG15201", "reagent": 1, "mitotic cells, replicate 1": 18, "call": "inactive"}
{"gene": "CG7341", "reagent": 1, "mitotic cells, replicate 1": 5, "call": "inactive"}
{"gene": "mi", "reagent": 1, "mitotic cells, replicate 1": 13, "call": "inactive"}
{"gene": "mi", "reagent": 2, "mitotic cells, replicate 1": 4, "call": "inactive"}
{"gene": "Zcchc7", "reagent": 1, "mitotic cells, replicate 1": 8, "call": "inactive"}
{"gene": "Zcchc7", "reagent": 2, "mitotic cells, replicate 1": 5, "call": "inactive"}
{"gene": "CG4945", "reagent": 1, "mitotic cells, replicate 1": 6, "call": "inactive"}
{"gene": "CG4945", "reagent": 2, "mitotic cells, replicate 1": 6, "call": "inactive"}
{"gene": "idc", "reagent": 1, "mitotic cells, replicate 1": 9, "call": "inactive"}
{"gene": "CG17637", "reagent": 1, "mitotic cells, replicate 1": 4, "call": "inactive"}
{"gene": "Coq4 + frc", "reagent": 1, "mitotic cells, replicate 1": 8, "call": "inactive"}
{"gene": "Coq4 + frc", "reagent": 2, "mitotic cells, replicate 1": 8, "call": "inactive"}
{"gene": "CG13047", "reagent": 1, "mitotic cells, replicate 1": 2, "call": "inactive"}
{"gene": "CG13047", "reagent": 2, "mitotic cells, replicate 1": 5, "call": "inactive"}
{"gene": "Polr1D + DCTN6-p27", "reagent": 1, "mitotic cells, replicate 1": 9, "call": "inactive"}
{"gene": "CG44837", "reagent": 1, "call": "inactive"}
{"gene": "CG44837", "reagent": 2, "mitotic cells, replicate 1": 4, "call": "inactive"}
{"gene": "CG44837", "reagent": 3, "mitotic cells, replicate 1": 8, "call": "inactive"}
{"gene": "Rpn9", "reagent": 1, "mitotic cells, replicate 1": 33, "call": "inactive"}
{"gene": "Rpn9", "reagent": 2, "mitotic cells, replicate 1": 20, "call": "inactive"}
{"gene": "CG17237", "reagent": 1, "mitotic cells, replicate 1": 4, "call": "inactive"}
{"gene": "SecS", "reagent": 1, "mitotic cells, replicate 1": 7, "call": "inactive"}
{"gene": "CG11703", "reagent": 1, "mitotic cells, replicate 1": 6, "call": "inactive"}
{"gene": "CG11703", "reagent": 2, "mitotic cells, replicate 1": 9, "call": "inactive"}
{"gene": "Piezo", "reagent": 1, "mitotic cells, replicate 1": 3, "call": "inactive"}
{"gene": "Reph", "reagent": 1, "mitotic cells, replicate 1": 5, "call": "inactive"}
{"gene": "Reph", "reagent": 2, "mitotic cells, replicate 1": 13, "call": "inactive"}
{"gene": "Reph", "reagent": 3, "mitotic cells, replicate 1": 4, "call": "inactive"}
{"gene": "cindr", "reagent": 1, "mitotic cells, replicate 1": 4, "call": "inactive"}
{"gene": "CG32450", "reagent": 1, "mitotic cells, replicate 1": 4, "call": "inactive"}
{"gene": "me31B", "reagent": 1, "mitotic cells, replicate 1": 21, "call": "active"}
{"gene": "Pdk", "reagent": 1, "mitotic cells, replicate 1": 5, "call": "inactive"}
{"gene": "EcR", "reagent": 1, "mitotic cells, replicate 1": 7, "call": "inactive"}
{"gene": "EcR", "reagent": 2, "mitotic cells, replicate 1": 7, "call": "inactive"}
{"gene": "EcR", "reagent": 3, "mitotic cells, replicate 1": 17, "call": "inactive"}
{"gene": "Jheh3", "reagent": 1, "mitotic cells, replicate 1": 7, "call": "inactive"}
{"gene": "Jheh3", "reagent": 2, "mitotic cells, replicate 1": 2, "call": "inactive"}
{"gene": "CG9436", "reagent": 1, "mitotic cells, replicate 1": 9, "call": "inactive"}
{"gene": "CG1698", "reagent": 1, "mitotic cells, replicate 1": 4, "call": "inactive"}
{"gene": "CG1698", "reagent": 2, "mitotic cells, replicate 1": 5, "call": "inactive"}
